Results taken from patent US20150167001.
At least one result comes from cells or an extract, where the contact may be indirect. A weaker result is weaker than the reference pair of the same experiment.

Amino acid sequences for entries named in this document (tags omitted).
UniProt O75626, whole entry: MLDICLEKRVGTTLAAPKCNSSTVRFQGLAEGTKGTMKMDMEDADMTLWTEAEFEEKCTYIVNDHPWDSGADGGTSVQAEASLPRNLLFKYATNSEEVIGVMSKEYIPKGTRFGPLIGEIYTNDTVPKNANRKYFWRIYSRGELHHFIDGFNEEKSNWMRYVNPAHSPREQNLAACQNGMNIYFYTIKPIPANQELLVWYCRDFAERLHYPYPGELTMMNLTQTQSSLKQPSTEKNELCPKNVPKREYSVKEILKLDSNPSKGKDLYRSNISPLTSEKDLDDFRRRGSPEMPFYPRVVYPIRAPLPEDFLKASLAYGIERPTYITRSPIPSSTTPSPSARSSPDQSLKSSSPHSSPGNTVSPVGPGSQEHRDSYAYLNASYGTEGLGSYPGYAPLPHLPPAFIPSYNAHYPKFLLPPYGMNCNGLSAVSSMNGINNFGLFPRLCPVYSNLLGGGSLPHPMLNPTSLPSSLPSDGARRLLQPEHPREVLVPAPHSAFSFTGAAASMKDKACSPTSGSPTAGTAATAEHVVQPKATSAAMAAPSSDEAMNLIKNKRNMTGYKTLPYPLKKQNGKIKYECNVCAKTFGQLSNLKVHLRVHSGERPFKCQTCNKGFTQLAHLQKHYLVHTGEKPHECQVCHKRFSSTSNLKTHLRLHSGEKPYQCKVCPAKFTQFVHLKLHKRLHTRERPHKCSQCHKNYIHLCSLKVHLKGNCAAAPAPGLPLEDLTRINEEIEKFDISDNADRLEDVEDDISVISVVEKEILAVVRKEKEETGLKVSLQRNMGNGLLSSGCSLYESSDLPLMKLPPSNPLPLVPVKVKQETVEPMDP

Molecular target: BLIMP-1 (Homo sapiens) (UniProt O75626)
Experiment: binding assay
Conditions: ChIP-qPCR, protein in cells, protein details: endogenous in BEAS-2B cells

Sequence | binding result (modest binding after poly I:C) | binding result (strongest of three sites, delayed after poly I:C)
TTCCAATTACCTTTTCACTT (double strand) [IFN-λ1 promoter proximal ISRE/PRDI site (F4/R4)] | binds more weakly | 
TAAATAAAATGAAATAAATTGAAAAT (double strand) [IFN-λ1 promoter distal ISRE/PRDI site (F2/R2)] |  | binds
